# Measured values from patent US20230203162A1.
# Sequences of proteins named here, by UniProt entry; tags and fusion partners are left off. A change or cut given only in a name is not applied to a line headed by its entry. A line that says so, or that is headed by a name, gives the form on record, which may keep a tag or linker.
# recombinant human MSLN (purchased from Peprotech) (Q13421, form named): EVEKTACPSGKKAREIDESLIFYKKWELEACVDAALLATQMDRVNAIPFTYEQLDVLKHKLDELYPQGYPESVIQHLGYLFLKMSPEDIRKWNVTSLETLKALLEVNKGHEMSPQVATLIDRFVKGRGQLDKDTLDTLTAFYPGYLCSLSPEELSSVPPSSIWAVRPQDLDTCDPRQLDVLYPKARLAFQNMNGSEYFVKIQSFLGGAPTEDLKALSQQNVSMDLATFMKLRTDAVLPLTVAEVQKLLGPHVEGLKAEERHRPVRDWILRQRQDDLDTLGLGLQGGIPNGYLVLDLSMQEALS
# These are yes or no findings as the source states them, for the method shown. Some results given as binding are weak or reduced against the parent protein; the word gives no strength.
# Molecular target: recombinant human MSLN (purchased from Peprotech) (human) (UniProt Q13421)
# Test: SPR
row,Binder,binding
1,anti-MSLN scFv PRO1783 (scFv) scFv: DIQMTQSPSSLSASVGDRVTITCQASQNIYSNLAWYQQKPGKAPKLLIYDASDLASGVPSRFSGSGSGTDFTLTISSLQPEDFATYYCQQVRSSSDIDNPFGTGTKVTVLGGGGGSGGGGSGGGGSGGGGSQVQLVESGGGLVQPGGSLRLSCAASGFSLSSYAMGWVRQAPGKGLEWIGYISTINNTYYASWAKGRFTISRDNSKNTVYLQMNSLRAEDTAVYYCAREIRSGWVDYGFSIWGQGTLVTVSS,binds
2,anti-MSLN scFv PRO1922 (scFv) scFv: DIQMTQSPSSLSASVGDRVTITCQASESIYSSLAWYQQKPGKAPKLLIYLASTLASGVPSRFSGSGSGTDFTLTISSLQPEDFATYYCQSTDYTTSTHRNSFGTGTKVTVLGGGGGSGGGGSGGGGSGGGGSEVQLVESGGGLVQPGGSLRLSCAASGFSFSTTYYMCWVRQAPGKGLEWIGCTNTASSVRTYYATWAKGRFTISRDNSKNTVYLQMNSLRAEDTAVYYCARDMGFADYALNLWGQGTLVTVSS,binds
3,anti-MSLN scFv PRO1925 (scFv) scFv: ALQMTQSPSSLSASVGDRVTITCQASQSISNYLAWYQQKPGKPPKFLIYDASDLASGVSSRFSGSGSGTDFTLTISSLQPEDFATYYCQQVYDSNNVENVFGTGTKVTVLGGGGGSGGGGSGGGGSGGGGSQSQLVESGGGLVQPGGSLRLSCAVSGFSLSSYAMGWVRQAPGKGLEYIGYISKIGTTYYASWAKGRFTISKDNSKNTVYLQMNSLRAEDTAVYFCARGSSSGGYLDDGFDPWGQGTLVTVSS,binds
4,anti-MSLN scFv PRO2306 (scFv) scFv: ALQMTQSPSSLSARVGDRVTIKCQASQSISNYLAWYQQKPGKPPKFLIYDASDLASGVPSRFSGSGSGRDFTLTISSLQPEDFATYYCQQVYDSNNVENVFGTGTKVTVLGGGGGSGGGGSGGGGSGGGGSQSQLVESGGGLVQPGGSLRLSCAVSGFSLSSYAMGWVRQAPGKGLEYIGYISKIGTTYYASWAKGRFTISKDNSKNTVYLQMNSLRAEDTAVYFCARGSSSGGYLDDGFDPWGQGTLVTVSS,binds
5,anti-MSLN scFv PRO2309 (scFv) scFv: ALQMTQSPSSLSARVGDRVTIKCQASQSISNYLAWYQQKPGKPPKFLIYDASDLASGVPSRFSGSGSGRDFTLTISSLQPEDFATYYCQQVYDSNNVENVFGCGTKVTVLGGGGGSGGGGSGGGGSGGGGSQSQLVESGGGLVQPGGSLRLSCAVSGFSLSSYAMGWVRQAPGKCLEYIGYISKIGTTYYASWAKGRFTISKDNSKNTVYLQMNSLRAEDTAVYFCARGSSSGGYLDDGFDPWGQGTLVTVSS,binds
6,"PRO1872 (scMATCH3, MSLNlow KD×CD3×hSA) (protein) DVVMTQSPSSLSASVGDRVTITCQASQIISSRSAWYQQKPGQPPKLLIYQASKLASGVPSRFSGSGSGTDFTLTISSLQPEDFATYYCQCTYIDSNFGAFGCGTKLTVLGGGGGSEVQLVESGGGLVQPGGSLRLSCAASGFSLSSYDMSWVRQAPGKGLAWIGASYASGPTYYASWAKGRFTISRDNSKNTVYLQMNSLRAEDTATYFCARGGWTGTSHSNIWGQGTLVTVSSGGGGSGGGGSGGGGSGGGGSDIQMTQSPSSLSASVGDRVTITCQSSQSVFSNNYLAWFQQKPGQSPKRLIYSASTLASGVPSRFSGSGSGTDFTLTISSLQPEDFATYYCLGSYACSSADCYVFGTGTKVTVLGGGGGSEVQLVESGGGLVQPGGSLRLSCAASGFSFSSSYWICWVRQAPGKCLEWVGCVFTGDGTTYYASWAKGRFTISRDNSKNTVYLQMNSLRAEDTATYFCARPVSVYYYGMDLWGQGTLVTVSSGGGGSGGGGSDIQMTQSPSSLSASVGDRVTITCQASESIGNYLAWYQQKPGKAPKLLIYSASTLASGVPSRFSGSGSGTDFTLTISSLQPEDFATYYCQSTDYGDSYIFGTGTKVTVLGGGGGSGGGGSGGGGSGGGGSEVQLVESGGGLVQPGGSLRLSCAASGISVSNDYYMCWVRQAPGKGLEWIGCISTYIGNTHYASWAKGRFTISRDNSKNTVYLQMNSLRAEDTAVYYCAKNAGYPGYRYAIDLWGQGTLVTVSS",binds
7,reference anti-MSLN scFv PRO1795 (scFv) scFv: DIQMTQSPSSLSASVGDRVTITCQASESIGNYLAWYQQKPGKAPKLLIYSASTLASGVPSRFSGSGSGTDFTLTISSLQPEDFATYYCQSTDYGDSYIFGTGTKVTVLGGGGGSGGGGSGGGGSGGGGSEVQLVESGGGLVQPGGSLRLSCAASGISVSNDYYMCWVRQAPGKGLEWIGCISTYIGNTHYASWAKGRFTISRDNSKNTVYLQMNSLRAEDTAVYYCAKNAGYPGYRYAIDLWGQGTLVTVSS,binds
8,"PRO2000 (MATCH4, biMSLNhigh KD×CD3×hSA) (protein) chain 1: DIQMTQSPSSLSASVGDRVTITCQASQNIYSNLAWYQQKPGKAPKLLIYDASDLASGVPSRFSGSGSGTDFTLTISSLQPEDFATYYCQQVRSSSDIDNPFGTGTKVTVLGGGGGSGGGGSGGGGSGGGGSQVQLVESGGGLVQPGGSLRLSCAASGFSLSSYAMGWVRQAPGKGLEWIGYISTINNTYYASWAKGRFTISRDNSKNTVYLQMNSLRAEDTAVYYCAREIRSGWVDYGFSIWGQGTLVTVSSGGGGSGGGGSEVQLVESGGGLVQPGGSLRLSCAASGFSLSSYDMSWVRQAPGKGLAWIGASYASGPTYYASWAKGRFTISRDNSKNTVYLQMNSLRAEDTATYFCARGGWTGTSHSNIWGQGTLVTVSSGGGSGGGSEVQLVESGGGLVQPGGSLRLSCAASGFSFSSSYWICWVRQAPGKCLEWVGCVFTGDGTTYYASWAKGRFTISRDNSKNTVYLQMNSLRAEDTATYFCARPVSVYYYGMDLWGQGTLVTVSS chain 2: DIQMTQSPSSLSASVGDRVTITCQASQNIYSNLAWYQQKPGKAPKLLIYDASDLASGVPSRFSGSGSGTDFTLTISSLQPEDFATYYCQQVRSSSDIDNPFGTGTKVTVLGGGGGSGGGGSGGGGSGGGGSQVQLVESGGGLVQPGGSLRLSCAASGFSLSSYAMGWVRQAPGKGLEWIGYISTINNTYYASWAKGRFTISRDNSKNTVYLQMNSLRAEDTAVYYCAREIRSGWVDYGFSIWGQGTLVTVSSGGGGSGGGGSDVVMTQSPSSLSASVGDRVTITCQASQIISSRSAWYQQKPGQPPKLLIYQASKLASGVPSRFSGSGSGTDFTLTISSLQPEDFATYYCQCTYIDSNFGAFGCGTKLTVLGGGSGGSDIQMTQSPSSLSASVGDRVTITCQSSQSVFSNNYLAWFQQKPGQSPKRLIYSASTLASGVPSRFSGSGSGTDFTLTISSLQPEDFATYYCLGSYACSSADCYVFGTGTKVTVLG",binds
9,PRO2562 (MATCH4) (protein) chain 1: ALQMTQSPSSLSARVGDRVTIKCQASQSISNYLAWYQQKPGKPPKFLIYDASDLASGVPSRFSGSGSGRDFTLTISSLQPEDFATYYCQQVYDSNNVENVFGCGTKVTVLGGGGGSGGGGSGGGGSGGGGSQSQLVESGGGLVQPGGSLRLSCAVSGFSLSSYAMGWVRQAPGKCLEYIGYISKIGTTYYASWAKGRFTISKDNSKNTVYLQMNSLRAEDTAVYFCARGSSSGGYLDDGFDPWGQGTLVTVSSGGGGSGGGGSEVQLVESGGGLVQPGGSLRLSCAASGFSLSSYDMSWVRQAPGKGLAWIGASYASGPTYYASWAKGRFTISRDNSKNTVYLQMCSLRAEDTATYFCARGGWTGTSHSNIWGQGTLVTVSSGGGSGGGSGGGSGEVQLVESGGGLVQPGGSLRLSCAASGFSLSSYAMNWVRQAPGKCLEWIGHINAGDIAYYATWAKGRFTISRDNSKNTVYLQMNSLRAEDTAVYFCARGAGGFSTGPFKLWGQGTLVTVSS chain 2: ALQMTQSPSSLSARVGDRVTIKCQASQSISNYLAWYQQKPGKPPKFLIYDASDLASGVPSRFSGSGSGRDFTLTISSLQPEDFATYYCQQVYDSNNVENVFGCGTKVTVLGGGGGSGGGGSGGGGSGGGGSQSQLVESGGGLVQPGGSLRLSCAVSGFSLSSYAMGWVRQAPGKCLEYIGYISKIGTTYYASWAKGRFTISKDNSKNTVYLQMNSLRAEDTAVYFCARGSSSGGYLDDGFDPWGQGTLVTVSSGGGGSGGGGSAFELTQSPSSLSASVGDRVTITCQASESINSRLAWYQQKPGQPPKLLIYDASDLTSGVPSRFSGSGSGTDFTLTISCLQPEDFATYYCQGYGGSSTTTFGCGTKLTVLGGGSGGSGGSGGSGDIQMTQSPSSLSASVGDRVTITCQSSQSVFSNNYLAWFQQKPGQSPKRLIYSASTLASGVPSRFSGSGSGTDFTLTISSLQPEDFATYYCLGSYACSSADCYVFGTGTKVTVLG,binds
10,PRO2566 (MATCH4) (protein) chain 1: AFELTQSPSSLSASVGDRVTITCQASESINSRLAWYQQKPGQPPKLLIYDASDLTSGVPSRFSGSGSGTDFTLTISSLQPEDFATYYCQGYGGSSTTTFGTGTKLTVLGGGGGSGGGGSGGGGSGGGGSEVQLVESGGGLVQPGGSLRLSCAASGFSLSSYAMNWVRQAPGKGLEWIGHINAGDIAYYATWAKGRFTISRDNSKNTVYLQMNSLRAEDTAVYFCARGAGGFSTGPFKLWGQGTLVTVSSGGGGSGGGGSEVQLVESGGGLVQPGGSLRLSCAASGFSLSSYDMSWVRQAPGKGLAWIGASYASGPTYYASWAKGRFTISRDNSKNTVYLQMNSLRAEDTATYFCARGGWTGTSHSNIWGQGTLVTVSSGGGSGGGSGGGSGQSQLVESGGGLVQPGGSLRLSCAVSGFSLSSYAMGWVRQAPGKCLEYIGYISKIGTTYYASWAKGRFTISKDNSKNTVYLQMNSLRAEDTAVYFCARGSSSGGYLDDGFDPWGQGTLVTVSS chain 2: ALQMTQSPSSLSARVGDRVTIKCQASQSISNYLAWYQQKPGKPPKFLIYDASDLASGVPSRFSGSGSGRDFTLTISSLQPEDFATYYCQQVYDSNNVENVFGCGTKVTVLGGGGGSGGGGSGGGGSGGGGSQSQLVESGGGLVQPGGSLRLSCAVSGFSLSSYAMGWVRQAPGKCLEYIGYISKIGTTYYASWAKGRFTISKDNSKNTVYLQMNSLRAEDTAVYFCARGSSSGGYLDDGFDPWGQGTLVTVSSGGGGSGGGGSALQMTQSPSSLSARVGDRVTIKCQASQSISNYLAWYQQKPGKPPKFLIYDASDLASGVPSRFSGSGSGRDFTLTISSLQPEDFATYYCQQVYDSNNVENVFGCGTKVTVLGGGSGGSGGSGGSGDIQMTQSPSSLSASVGDRVTITCQSSQSVFSNNYLAWFQQKPGQSPKRLIYSASTLASGVPSRFSGSGSGTDFTLTISSLQPEDFATYYCLGSYACSSADCYVFGTGTKVTVLG,binds
